Experimental findings from publication PMC4046817 are described below.

The exact form of at least one protein or probe is not confirmed. A negative result means that nothing was seen under these conditions. Where a protein sequence is shown, tags need not be part of it.

The data set deals with T1, Ss-LrpB (UniProt Q7LX67).
T1 sequence (looked up, limits assumed): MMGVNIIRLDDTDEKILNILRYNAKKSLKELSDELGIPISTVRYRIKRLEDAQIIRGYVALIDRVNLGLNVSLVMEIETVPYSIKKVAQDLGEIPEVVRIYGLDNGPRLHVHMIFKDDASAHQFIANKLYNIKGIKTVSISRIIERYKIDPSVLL
Kind of data set: EMSA. The note with it: EMSA/footprinting in LrpB binding buffer (ref. 27), composition, pH and temperature not given, recombinant protein, label: 5'-32P, probe letters rebuilt from the primers and the genome.

Turning to “TGAGCTCGTACAATAGTGATAATAAAGTTATCAGATACTTGACAGATTTAGGTAGGTCATGTGACTTCCAGGTTTAACATTTTGAAAGATCTAGTTTGTTTGAAGAAGGAGGAACAACATTTCCTCTCTGATTTCTTTACTTAACTCTTATTTTTGAAGAGGATATAAAAACCCAGAACATGACGTACGAGTTGTGTTAAAAATATTTTATGTTTATCTTCGTTTATCTACTTCGTTCCTTGATAAAAGAAAGGCTCTATAAATTCGATCTATTGTTATATATTTATTAATTTTAATAGTTTGATTTTAGGCTATTAAATATACTTGATACAATAAATTAGTATTCGATTCTATTTCCAGCCTAAGTAGCATTTACAATAATATAGTTCGAGTTTACTTCATCCTTATGGTGTAGCGATAGCTTTAAAATAGTTTGCTTCGATATTAACATGCGGA (double strand) [Sso1027 fragment]”, the binding result was “binds”.

On to “TGTGAACTTGTTGAATTTTCCAGAAGAGTTAGAAGGATCACAAAGCTAAATTGAACATCTCAACATTAGTTGAAATAAAGGTAATGAGTTTGGACAACGATTTTGTTAATTGACGATAAACTATAAATAAAAGACTTGAAATAAAAAGAGAATTATTATTTGACAAAATGAAGACAAGTCTCGAATGAGAGTGTTTGGATCCTTTTATAAGGCCTAAAAAGTTATTTCTTCAACTTATCTTCTATATATTCTATAATTTCCGCTATATTCTGGGTTGATTCATCGTTATTGAAGGTCTTATTTAAATCACTACTCTTTATTATAATATGTCGTAATTTTTCATCGCAGTAGAAAAGTTCTATTTTTAAGTCCTTATAGATGTATTCATCTACTTTAATTATTCCCTCGTAGACATAACTCCTAACCTTAAATATGTTAGTTTTTGCCCTTAAGAAGTCTTCA (double strand) [Sso2142 fragment]”, for which the binding result (none or only nonspecific) is given as “no binding”.

For “TTGATGGCGTTAGTGTGACAATTGTGTTAAAGCCGGAATAGGAGAAAAAGGCCAAATTCGACGTTGTCAATACTCCTTGTATTCCATGGGGAAACAACGGTACGAAATTATGTACTTTTATCCCTACTATAATGGGGATTGTTAATGAGAAGAGTATTAGACTTGAAATGTTTATTATCACAAATATCGTATCGACTTCAGCAACTGTCCCTATCCCGAAATAGTCCAAAACCAGTAAGATTACGATGAGTATCACAGCTAAAGTGTAGTAAAGCGTTTTGGGTAGACCAAATAGTAGGAGATAGCCCGAAAAGCCTAGAGCAGTTGCAGCTCCGCCAATTACATATGATATTACCCTAAACCAACCCACTAGGAATCCGGACATTTCCCCTAAGGTCTTTAAGGTAAAACTGTAAACTCCTCCTTCAACGTCAGTGAAAATCGAGGATAATTCTGCACTATTTAATCCAATTGACATTGCGAAAATTGCAGT (double strand) [Sso1463 fragment]”, the binding result (none or only nonspecific) is reported as “no binding”.

In the case of “TTGCTCTTTAAAGTCTGACGAAGTACATTTTTCAGCTGATAATTAAAACCATTAGATTATATAGAATAATTTGTATAAAAGTTTGTTAATAAATTTTTAAATTTTTTTAAGGGTGATATATGACTCTGATGTTTAACGTTCGCCCATTTTACAACGTTAATCGTATAATTTAGATGTTACCGGAAACAAAGATAAAGGAGGTTCTGGAATCGATTTTGATACTATTATAACTACAGAGGGCTCATTATCTGTAATGTCATCCATGACCTTGTCTAATTTGAGCGGAATTGGAAAAATTATCATTATTTAATATCAGTACGATTATAAACTAGGTCTACTATAAAAATGAAACATGTTAATAGGGTATTACGGAAATAATTGACCACTTCTAAGATAAAATTTACAAAAGTTAAAATTAACTAAGCAAACAAGTTTCCTCTTCATCTTAATCTTATAGTTAAACCTTAGGGAAGGAAAACATTCACA (double strand) [Sso2133 fragment (Box6)]”, the binding result is on record as “binds”.

Regarding “TTTTTCATCTCATTTTTATGTTACGCGTATATAGGTTTATTATTAATTGTTGATAATACCTATGTATTCATATTAGTTGGTTAAGGACATTTTTAGGACTTGCTGAAGGTTATTATGTGGGAAATAGTTATTTATACGTATTCGCTACTAAAATAGACAAGAATGTCATCCATATCAGCGGACACAGACGAATTATATAAGAAGATATCTGAGCTCAAAGAGAATATAGTTAGACTAAAGCAACTCAAGTTAGAACTTATTGAAAAGGTCAAAAAAATGAGAGAGAAAAGGAGGGAAAAAATAGCCAAAGTAAAAGAGTTGACGCAGCAAATTAACGTAGTAAGGCAAGAGTATAAAATGAAATTAGAGGAATTTAACCAGCTT (double strand) [Sso0974 fragment]”, the binding result (none or only nonspecific) is given as “no binding”.
